This experiment deals with glucocorticoid receptor (GR), wild type (human) (UniProt P04150). The experiment can be described thus: co-IP.

Amino acid sequences for entries named in this document (tags omitted). A change or cut given only in a name is not applied to a line headed by its entry. Chains listed by the source or under a name are the forms on record and can include a tag or linker.
glucocorticoid receptor (GR), wild type (P04150, form named): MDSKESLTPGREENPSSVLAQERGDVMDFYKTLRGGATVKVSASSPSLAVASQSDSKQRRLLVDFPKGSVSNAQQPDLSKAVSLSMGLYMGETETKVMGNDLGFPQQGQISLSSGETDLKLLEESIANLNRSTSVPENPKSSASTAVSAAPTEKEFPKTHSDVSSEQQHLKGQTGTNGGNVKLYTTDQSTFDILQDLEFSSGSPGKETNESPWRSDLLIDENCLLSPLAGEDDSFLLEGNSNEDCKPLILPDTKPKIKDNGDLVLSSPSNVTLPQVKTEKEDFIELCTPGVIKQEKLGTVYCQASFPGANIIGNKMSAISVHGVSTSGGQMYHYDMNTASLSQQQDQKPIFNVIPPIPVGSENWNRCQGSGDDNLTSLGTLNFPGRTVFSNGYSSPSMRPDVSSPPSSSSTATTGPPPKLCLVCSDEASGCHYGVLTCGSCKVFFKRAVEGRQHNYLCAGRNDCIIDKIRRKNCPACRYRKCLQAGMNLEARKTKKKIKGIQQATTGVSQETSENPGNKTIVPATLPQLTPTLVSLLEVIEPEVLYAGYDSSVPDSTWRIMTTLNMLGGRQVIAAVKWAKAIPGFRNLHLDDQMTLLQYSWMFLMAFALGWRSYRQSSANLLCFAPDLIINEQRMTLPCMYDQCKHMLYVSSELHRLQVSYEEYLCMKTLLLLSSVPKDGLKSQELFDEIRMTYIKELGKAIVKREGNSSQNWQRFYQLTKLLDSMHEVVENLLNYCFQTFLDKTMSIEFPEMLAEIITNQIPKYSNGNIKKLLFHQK
RUNX3, wild type (Q13761-2, form named): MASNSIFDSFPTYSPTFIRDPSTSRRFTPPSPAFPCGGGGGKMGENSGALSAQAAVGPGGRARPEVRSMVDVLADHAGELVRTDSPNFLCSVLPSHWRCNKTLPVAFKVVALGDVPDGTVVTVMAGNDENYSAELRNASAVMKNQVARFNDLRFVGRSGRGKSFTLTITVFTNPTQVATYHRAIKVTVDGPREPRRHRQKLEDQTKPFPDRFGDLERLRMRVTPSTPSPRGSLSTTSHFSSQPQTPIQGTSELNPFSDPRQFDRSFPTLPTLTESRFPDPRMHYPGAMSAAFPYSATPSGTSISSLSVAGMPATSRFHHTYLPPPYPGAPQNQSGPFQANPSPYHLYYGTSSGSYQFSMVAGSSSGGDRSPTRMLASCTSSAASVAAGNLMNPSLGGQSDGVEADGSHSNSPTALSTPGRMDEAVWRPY

These are yes or no findings as the source states them, for the method shown. In cells and extracts the contact can be indirect. Some binding calls cover weakened binding; strength is not graded here.

On to “RUNX3, wild type (from UniProt Q13761-2 1-429)”, for which the binding entry was “binds”.

Source of the values: article doi:10.1101/2025.04.30.651472.
